# Reference: patent publication US20160290999A1 (SYSMEX, published 2016)
# Amino acid sequences for entries named in this document (tags omitted). Residues count along the entry.
# UniProt P02768, residues 25-609: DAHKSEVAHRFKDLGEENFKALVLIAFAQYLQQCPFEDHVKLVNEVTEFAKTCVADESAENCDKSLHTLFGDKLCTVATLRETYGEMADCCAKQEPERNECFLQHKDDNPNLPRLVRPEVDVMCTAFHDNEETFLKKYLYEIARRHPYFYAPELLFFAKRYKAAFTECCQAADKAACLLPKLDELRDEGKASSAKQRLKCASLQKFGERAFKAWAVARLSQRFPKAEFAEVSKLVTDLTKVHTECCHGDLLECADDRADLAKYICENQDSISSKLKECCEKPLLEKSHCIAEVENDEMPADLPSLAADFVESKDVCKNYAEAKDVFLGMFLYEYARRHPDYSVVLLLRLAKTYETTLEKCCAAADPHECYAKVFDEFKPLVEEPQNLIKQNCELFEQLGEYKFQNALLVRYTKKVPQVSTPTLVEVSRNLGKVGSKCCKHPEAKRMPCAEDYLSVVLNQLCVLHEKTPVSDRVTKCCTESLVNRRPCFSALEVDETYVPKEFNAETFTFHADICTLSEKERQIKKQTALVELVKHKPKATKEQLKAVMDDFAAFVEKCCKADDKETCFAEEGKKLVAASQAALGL
# These are yes or no findings as the source states them, for the method shown. Some entries that bind do so weakly or less than the wild type.
# Legend:
# Human serum albumin [1] = molecular target: T1, Human serum albumin (human, UniProt P02768 25-609); assay: hydrothermal treatment at 160° C. in human serum, red colour of the insoluble fraction
# T1 construct: Purchased protein used in solution; In the hydrothermal experiments it is heat-aggregated into an insoluble precipitate; also called HSA
# Human serum albumin [2] = molecular target: T1, Human serum albumin; assay: hydrothermal treatment of TMR-labeled SA21 with 300 µM HSA, SDS-PAGE of the supernatant and visual inspection
binder,measurement,setting,value
"DDEWLCGWRPLCIDEILR (tetramethyl rhodamine (TMR) label, site not stated) [TMR-labeled SA21]",binding,Human serum albumin [1],binds
same,binding,Human serum albumin [2],binds
